The other results are listed elsewhere or left out.

Chains of the proteins cited; added tags and fusions are not shown. Lines headed by an entry give the natural chain unless they say otherwise; changes in a name come on top.
UniProt Q9NTG7: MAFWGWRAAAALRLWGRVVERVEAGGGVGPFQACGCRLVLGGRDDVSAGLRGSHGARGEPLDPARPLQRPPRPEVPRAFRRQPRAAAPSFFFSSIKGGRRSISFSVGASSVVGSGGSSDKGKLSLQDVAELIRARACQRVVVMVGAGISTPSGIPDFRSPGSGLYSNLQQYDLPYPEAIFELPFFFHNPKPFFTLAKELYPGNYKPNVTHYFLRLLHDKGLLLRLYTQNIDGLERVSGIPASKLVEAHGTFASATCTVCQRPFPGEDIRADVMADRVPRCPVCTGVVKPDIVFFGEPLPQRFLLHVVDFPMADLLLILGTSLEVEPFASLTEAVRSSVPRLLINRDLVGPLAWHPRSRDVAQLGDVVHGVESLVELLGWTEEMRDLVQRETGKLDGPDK
UniProt P53985: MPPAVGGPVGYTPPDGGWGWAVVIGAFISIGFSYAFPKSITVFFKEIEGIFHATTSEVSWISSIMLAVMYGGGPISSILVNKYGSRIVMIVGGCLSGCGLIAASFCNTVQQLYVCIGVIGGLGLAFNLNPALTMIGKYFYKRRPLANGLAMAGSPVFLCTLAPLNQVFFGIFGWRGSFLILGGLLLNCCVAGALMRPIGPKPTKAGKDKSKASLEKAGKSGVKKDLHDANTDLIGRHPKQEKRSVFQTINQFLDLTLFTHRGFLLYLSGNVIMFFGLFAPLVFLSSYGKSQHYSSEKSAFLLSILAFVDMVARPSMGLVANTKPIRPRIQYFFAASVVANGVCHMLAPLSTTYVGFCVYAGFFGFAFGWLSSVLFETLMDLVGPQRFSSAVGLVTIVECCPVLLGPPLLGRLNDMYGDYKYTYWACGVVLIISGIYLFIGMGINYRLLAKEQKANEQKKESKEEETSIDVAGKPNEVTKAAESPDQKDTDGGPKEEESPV
UniProt O43290: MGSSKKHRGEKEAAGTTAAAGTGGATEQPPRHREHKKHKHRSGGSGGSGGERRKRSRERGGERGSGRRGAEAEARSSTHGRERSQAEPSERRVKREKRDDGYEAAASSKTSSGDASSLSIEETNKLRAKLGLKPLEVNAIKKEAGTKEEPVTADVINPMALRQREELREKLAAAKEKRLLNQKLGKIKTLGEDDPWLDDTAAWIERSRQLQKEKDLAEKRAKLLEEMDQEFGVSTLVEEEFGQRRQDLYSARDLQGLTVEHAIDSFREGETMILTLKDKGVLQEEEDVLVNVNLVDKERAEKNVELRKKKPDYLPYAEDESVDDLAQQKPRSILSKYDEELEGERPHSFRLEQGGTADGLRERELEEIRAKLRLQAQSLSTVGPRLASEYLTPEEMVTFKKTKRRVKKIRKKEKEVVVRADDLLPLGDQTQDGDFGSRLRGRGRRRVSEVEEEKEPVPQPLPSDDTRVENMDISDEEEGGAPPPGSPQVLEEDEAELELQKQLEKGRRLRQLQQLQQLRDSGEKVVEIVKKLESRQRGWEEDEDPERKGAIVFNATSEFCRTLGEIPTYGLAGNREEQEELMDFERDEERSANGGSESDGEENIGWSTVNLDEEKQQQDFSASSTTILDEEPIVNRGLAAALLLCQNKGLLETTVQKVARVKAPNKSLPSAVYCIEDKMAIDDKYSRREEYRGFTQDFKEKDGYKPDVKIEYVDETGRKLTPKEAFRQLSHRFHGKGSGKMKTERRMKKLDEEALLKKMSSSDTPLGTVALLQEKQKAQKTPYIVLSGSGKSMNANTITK
UniProt Q6P4A7: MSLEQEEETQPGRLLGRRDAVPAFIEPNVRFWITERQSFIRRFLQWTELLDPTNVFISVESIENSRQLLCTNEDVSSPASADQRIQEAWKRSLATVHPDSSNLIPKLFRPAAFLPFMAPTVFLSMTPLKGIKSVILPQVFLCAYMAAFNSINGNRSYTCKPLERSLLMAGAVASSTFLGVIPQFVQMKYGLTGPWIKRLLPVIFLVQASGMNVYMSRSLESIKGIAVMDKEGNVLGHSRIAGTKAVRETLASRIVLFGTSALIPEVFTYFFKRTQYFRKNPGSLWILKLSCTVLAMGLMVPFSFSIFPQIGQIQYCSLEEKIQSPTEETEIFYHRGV
UniProt O00560: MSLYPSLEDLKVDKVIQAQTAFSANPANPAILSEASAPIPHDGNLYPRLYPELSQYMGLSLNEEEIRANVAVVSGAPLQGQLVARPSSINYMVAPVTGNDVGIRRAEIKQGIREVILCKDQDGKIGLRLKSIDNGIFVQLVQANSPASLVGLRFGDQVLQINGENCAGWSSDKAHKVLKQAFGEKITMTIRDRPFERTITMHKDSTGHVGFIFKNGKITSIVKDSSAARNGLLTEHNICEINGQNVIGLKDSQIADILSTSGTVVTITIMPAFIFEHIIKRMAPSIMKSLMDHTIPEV
UniProt Q9BYW2: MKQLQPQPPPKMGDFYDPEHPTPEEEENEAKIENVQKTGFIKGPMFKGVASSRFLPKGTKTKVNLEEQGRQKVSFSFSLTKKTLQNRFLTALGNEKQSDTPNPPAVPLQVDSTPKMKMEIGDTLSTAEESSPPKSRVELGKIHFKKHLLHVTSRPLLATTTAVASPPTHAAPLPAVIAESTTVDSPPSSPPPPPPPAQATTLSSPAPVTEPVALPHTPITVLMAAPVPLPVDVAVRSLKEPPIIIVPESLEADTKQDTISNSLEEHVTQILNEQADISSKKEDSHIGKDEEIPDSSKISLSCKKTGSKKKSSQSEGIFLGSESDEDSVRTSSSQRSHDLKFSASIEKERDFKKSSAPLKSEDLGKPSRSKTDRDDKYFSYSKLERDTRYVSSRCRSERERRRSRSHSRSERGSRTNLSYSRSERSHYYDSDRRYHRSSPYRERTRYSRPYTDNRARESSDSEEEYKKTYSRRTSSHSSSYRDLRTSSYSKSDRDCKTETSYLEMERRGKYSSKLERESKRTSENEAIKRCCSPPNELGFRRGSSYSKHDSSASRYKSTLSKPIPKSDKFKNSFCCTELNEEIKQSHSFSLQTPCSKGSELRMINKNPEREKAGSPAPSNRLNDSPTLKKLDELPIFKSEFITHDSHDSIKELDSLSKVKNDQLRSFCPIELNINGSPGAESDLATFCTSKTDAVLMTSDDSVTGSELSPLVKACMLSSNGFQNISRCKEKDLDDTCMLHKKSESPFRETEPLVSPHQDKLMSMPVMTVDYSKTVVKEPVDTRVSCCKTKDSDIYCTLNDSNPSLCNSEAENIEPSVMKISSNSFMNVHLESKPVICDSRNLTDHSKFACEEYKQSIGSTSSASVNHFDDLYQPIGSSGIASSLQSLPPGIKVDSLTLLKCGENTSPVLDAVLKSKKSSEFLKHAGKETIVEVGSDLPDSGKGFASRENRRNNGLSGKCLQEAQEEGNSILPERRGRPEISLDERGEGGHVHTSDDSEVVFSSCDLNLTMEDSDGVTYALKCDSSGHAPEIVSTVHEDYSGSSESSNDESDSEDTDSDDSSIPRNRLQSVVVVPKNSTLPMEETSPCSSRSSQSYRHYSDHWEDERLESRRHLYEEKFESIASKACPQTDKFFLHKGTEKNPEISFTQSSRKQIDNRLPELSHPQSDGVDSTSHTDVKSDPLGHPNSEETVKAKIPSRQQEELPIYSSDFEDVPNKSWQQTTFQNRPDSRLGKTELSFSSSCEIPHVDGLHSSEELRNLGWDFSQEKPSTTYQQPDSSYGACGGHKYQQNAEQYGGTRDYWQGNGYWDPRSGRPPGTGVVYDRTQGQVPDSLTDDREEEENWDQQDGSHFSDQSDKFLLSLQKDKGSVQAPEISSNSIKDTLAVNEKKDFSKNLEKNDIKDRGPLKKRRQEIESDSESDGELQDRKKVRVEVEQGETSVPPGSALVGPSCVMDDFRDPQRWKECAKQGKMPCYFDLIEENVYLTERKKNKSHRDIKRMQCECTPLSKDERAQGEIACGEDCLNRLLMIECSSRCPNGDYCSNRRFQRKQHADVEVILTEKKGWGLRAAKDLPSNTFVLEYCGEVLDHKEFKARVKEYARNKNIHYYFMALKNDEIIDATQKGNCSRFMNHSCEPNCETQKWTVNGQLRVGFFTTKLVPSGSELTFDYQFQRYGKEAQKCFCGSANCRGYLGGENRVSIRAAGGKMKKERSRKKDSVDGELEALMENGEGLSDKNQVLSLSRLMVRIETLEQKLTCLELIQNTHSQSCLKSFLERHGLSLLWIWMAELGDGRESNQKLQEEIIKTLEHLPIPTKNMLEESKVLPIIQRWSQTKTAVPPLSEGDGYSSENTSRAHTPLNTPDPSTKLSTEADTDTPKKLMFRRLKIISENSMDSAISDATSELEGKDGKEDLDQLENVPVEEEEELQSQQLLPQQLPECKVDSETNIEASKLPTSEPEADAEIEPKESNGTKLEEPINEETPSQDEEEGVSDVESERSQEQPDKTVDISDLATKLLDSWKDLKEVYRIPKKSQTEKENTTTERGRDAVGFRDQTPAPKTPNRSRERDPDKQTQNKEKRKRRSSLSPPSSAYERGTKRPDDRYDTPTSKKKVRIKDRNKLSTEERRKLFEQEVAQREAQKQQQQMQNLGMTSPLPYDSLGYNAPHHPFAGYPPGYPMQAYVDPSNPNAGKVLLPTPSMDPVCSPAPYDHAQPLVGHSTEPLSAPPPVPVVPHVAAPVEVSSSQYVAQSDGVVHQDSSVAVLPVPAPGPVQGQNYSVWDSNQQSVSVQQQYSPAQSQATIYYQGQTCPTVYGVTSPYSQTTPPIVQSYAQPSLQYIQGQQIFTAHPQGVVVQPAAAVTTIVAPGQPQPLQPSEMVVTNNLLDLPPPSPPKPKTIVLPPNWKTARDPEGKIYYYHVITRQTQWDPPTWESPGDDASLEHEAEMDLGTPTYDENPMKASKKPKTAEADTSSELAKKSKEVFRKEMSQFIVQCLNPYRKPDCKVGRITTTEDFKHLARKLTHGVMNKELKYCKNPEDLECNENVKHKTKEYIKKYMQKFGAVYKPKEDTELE
UniProt Q9UBX3: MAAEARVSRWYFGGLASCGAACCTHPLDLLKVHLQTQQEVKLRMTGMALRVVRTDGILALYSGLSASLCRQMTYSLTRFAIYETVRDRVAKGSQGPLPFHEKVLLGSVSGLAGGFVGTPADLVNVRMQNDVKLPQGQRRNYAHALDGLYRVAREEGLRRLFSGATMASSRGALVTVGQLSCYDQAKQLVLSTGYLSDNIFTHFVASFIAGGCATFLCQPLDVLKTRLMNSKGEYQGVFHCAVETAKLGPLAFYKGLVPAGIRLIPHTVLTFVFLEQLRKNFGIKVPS
UniProt O00400: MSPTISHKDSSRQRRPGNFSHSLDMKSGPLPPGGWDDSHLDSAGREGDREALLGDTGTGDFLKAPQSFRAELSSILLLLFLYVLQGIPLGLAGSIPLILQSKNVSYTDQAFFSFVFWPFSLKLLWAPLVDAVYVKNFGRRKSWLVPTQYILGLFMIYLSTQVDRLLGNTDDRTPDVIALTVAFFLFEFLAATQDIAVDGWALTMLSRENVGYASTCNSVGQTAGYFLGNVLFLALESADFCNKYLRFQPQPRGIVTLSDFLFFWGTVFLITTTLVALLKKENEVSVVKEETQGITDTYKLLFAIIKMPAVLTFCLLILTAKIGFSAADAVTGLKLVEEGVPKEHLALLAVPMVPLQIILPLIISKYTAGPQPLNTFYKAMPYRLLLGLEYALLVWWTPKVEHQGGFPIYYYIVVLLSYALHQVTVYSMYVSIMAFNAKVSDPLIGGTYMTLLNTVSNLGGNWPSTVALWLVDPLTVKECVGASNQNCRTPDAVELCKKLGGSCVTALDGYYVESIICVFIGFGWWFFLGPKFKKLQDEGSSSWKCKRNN
UniProt Q96A46: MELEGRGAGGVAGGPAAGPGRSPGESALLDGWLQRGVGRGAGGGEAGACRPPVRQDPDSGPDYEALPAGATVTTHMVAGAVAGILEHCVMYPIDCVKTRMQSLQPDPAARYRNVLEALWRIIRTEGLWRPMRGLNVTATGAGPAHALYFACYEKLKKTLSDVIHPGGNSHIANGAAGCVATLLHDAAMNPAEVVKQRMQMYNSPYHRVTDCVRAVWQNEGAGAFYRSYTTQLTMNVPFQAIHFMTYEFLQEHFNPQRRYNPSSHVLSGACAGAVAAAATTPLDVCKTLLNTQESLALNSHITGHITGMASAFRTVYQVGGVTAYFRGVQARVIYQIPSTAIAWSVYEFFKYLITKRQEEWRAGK
UniProt Q96NB2: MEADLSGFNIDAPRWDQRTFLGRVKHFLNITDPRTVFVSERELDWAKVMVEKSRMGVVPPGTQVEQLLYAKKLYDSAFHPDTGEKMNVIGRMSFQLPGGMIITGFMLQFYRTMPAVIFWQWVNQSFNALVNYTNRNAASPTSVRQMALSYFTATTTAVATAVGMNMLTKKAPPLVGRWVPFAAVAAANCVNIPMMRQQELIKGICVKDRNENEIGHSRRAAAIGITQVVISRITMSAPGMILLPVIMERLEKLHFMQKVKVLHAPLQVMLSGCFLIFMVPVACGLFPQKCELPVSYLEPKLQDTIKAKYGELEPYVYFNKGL
UniProt P67812: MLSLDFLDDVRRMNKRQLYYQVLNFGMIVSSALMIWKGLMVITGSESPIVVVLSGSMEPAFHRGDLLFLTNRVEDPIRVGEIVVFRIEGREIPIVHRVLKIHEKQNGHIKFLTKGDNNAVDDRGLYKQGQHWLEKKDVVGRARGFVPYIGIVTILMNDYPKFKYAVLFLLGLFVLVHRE

Compound in the experiment: COc1ccc(Cn2ccc3ccc(C(=O)NO)cc32)cc1
The experiment in a line: dose-dependent thermal stabilisation call (2D-TPP, DLPTP, 10% FDR) (binary (1 = stabilised)); higher = stabilised by the compound. To be noted: system: HL-60 intact cells; concentration range 0.04-10 µM.
For SDC1 (UniProt P18827), the “dose-dependent thermal stabilisation call” value was inactive: 0.

On to SIRT3 (UniProt Q9NTG7), for which the “dose-dependent thermal stabilisation call” value was inactive: 0.

Turning to SLC2A13 (UniProt Q96QE2), the “dose-dependent thermal stabilisation call” value was inactive: 0.

On to SIRPA (UniProt P78324), for which the “dose-dependent thermal stabilisation call” value was inactive: 0.

For the target SDF2L1 (UniProt Q9HCN8), the “dose-dependent thermal stabilisation call” value was inactive: 0.

In the case of SEC24C (UniProt P53992), the “dose-dependent thermal stabilisation call” value is inactive: 0.

As to SEC31A (UniProt O94979), the “dose-dependent thermal stabilisation call” value was inactive: 0.

With SLC16A1 (UniProt P53985), the “dose-dependent thermal stabilisation call” value is inactive: 0.

For the target SCAMP1 (UniProt O15126), the “dose-dependent thermal stabilisation call” value is inactive: 0.

As to SLC26A2 (UniProt P50443), the “dose-dependent thermal stabilisation call” value is inactive: 0.

Regarding SART1 (UniProt O43290), the “dose-dependent thermal stabilisation call” value is inactive: 0.

As to SIN3A (UniProt Q96ST3), the “dose-dependent thermal stabilisation call” value is inactive: 0.

For SERPINC1 (UniProt P01008), the “dose-dependent thermal stabilisation call” value is inactive: 0.

For SLC27A2 (UniProt O14975), the “dose-dependent thermal stabilisation call” value was active: 1.

Take SFXN4 (UniProt Q6P4A7): the “dose-dependent thermal stabilisation call” value is inactive: 0.

Take SEC63 (UniProt Q9UGP8): the “dose-dependent thermal stabilisation call” value was inactive: 0.

SLC2A3 (UniProt P11169): the “dose-dependent thermal stabilisation call” value is inactive: 0.

Regarding SDCBP (UniProt O00560), the “dose-dependent thermal stabilisation call” value was inactive: 0.

Regarding SFRS18 (UniProt Q8TF01), the “dose-dependent thermal stabilisation call” value was inactive: 0.

In the case of SGK196 (UniProt Q9H5K3), the “dose-dependent thermal stabilisation call” value is inactive: 0.

Consider SCYL1BP1 (UniProt Q5T7V8), for which the “dose-dependent thermal stabilisation call” value is inactive: 0.

As to SEC62 (UniProt Q99442), the “dose-dependent thermal stabilisation call” value was inactive: 0.

On to SETD2 (UniProt Q9BYW2), for which the “dose-dependent thermal stabilisation call” value was inactive: 0.

For SLC44A1 (UniProt Q8WWI5), the “dose-dependent thermal stabilisation call” value is inactive: 0.

As for SEPT8 (UniProt Q92599), the “dose-dependent thermal stabilisation call” value is inactive: 0.

For SF3A3 (UniProt Q12874), the “dose-dependent thermal stabilisation call” value is inactive: 0.

In the case of SETD6 (UniProt Q8TBK2), the “dose-dependent thermal stabilisation call” value was inactive: 0.

Consider SFRS16 (UniProt Q8N2M8), for which the “dose-dependent thermal stabilisation call” value was inactive: 0.

For SLC25A10 (UniProt Q9UBX3), the “dose-dependent thermal stabilisation call” value is inactive: 0.

For SLC33A1 (UniProt O00400), the “dose-dependent thermal stabilisation call” value was inactive: 0.

Regarding SEC16A (UniProt O15027), the “dose-dependent thermal stabilisation call” value was inactive: 0.

SLC4A1AP (UniProt Q9BWU0): the “dose-dependent thermal stabilisation call” value was inactive: 0.

Regarding SLC39A3 (UniProt Q9BRY0), the “dose-dependent thermal stabilisation call” value was inactive: 0.

As to SLC25A28 (UniProt Q96A46), the “dose-dependent thermal stabilisation call” value is inactive: 0.

For the target SEC24D (UniProt O94855), the “dose-dependent thermal stabilisation call” value was inactive: 0.

For SFXN2 (UniProt Q96NB2), the “dose-dependent thermal stabilisation call” value was inactive: 0.

Regarding SEC11A (UniProt P67812), the “dose-dependent thermal stabilisation call” value was inactive: 0.
